Laboratory results: publication doi:10.1101/2022.09.15.508097
Results are given in words; binding and its absence hold for the method and conditions named. Some results given as binding are weak or reduced against the parent protein; the word gives no strength. For some of these results: Where a sequence is shown, tags or fusion partners need not be part of it.

T1: TetR:EYFP:CENP-B^133–599 (human) (UniProt P07199)
T1 sequence: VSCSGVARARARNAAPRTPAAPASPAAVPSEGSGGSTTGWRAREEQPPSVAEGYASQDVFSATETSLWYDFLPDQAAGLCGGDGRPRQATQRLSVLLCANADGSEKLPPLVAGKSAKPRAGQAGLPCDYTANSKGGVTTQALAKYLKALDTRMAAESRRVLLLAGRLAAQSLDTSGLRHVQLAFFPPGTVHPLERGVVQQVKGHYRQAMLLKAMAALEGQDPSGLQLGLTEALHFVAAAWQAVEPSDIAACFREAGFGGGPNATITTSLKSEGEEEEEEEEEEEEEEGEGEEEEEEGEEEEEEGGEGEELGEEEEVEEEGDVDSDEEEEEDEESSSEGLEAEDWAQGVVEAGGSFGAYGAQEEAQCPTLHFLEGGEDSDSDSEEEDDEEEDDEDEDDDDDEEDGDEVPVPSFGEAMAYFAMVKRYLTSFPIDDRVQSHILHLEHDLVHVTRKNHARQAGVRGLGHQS


Tests used:
Assay in all cases: fluorescence microscopy-based interaction-trap
[1] = target: TetR-EYFP-ZNF518B^770–877 (human) (UniProt Q9C0D4)
[2] = target: TetR-EYFP-ZNF518B^555–877 (human) (UniProt Q9C0D4)
[3] = target: TetR-EYFP-ZNF518B^344–987 (human) (UniProt Q9C0D4)
[4] = target: TetR-EYFP-ZNF518B^344–1074 (human) (UniProt Q9C0D4)
[5] = target: TetR-EYFP-ZNF518B^770–987 (human) (UniProt Q9C0D4)
[6] = target: TetR-EYFP-ZNF518B^878–987 (human) (UniProt Q9C0D4)
[7] = target: TetR-EYFP-ZNF518B^344–628 (human) (UniProt Q9C0D4)
[8] = target: TetR-EYFP-ZNF518B^555–1074 (human) (UniProt Q9C0D4)
[9] = target: TetR-EYFP-ZNF518B^1–628 (human) (UniProt Q9C0D4)
[10] = target: TetR-EYFP-ZNF518B^1–398 (human) (UniProt Q9C0D4)
[11] = target: TetR-EYFP-ZNF518B^344–877 (human) (UniProt Q9C0D4)
[12] = target: TetR-EYFP-ZNF518B^878–1074 (human) (UniProt Q9C0D4)
[13] = target: T1, TetR:EYFP:CENP-B^133–599 (human)

Binder	binding [1]	binding [2]	binding [3]	binding [4]	binding [5]	binding [6]	binding [7]	binding [8]	binding [9]	binding [10]	binding [11]	binding [12]	binding [13]
Halo-CENP-B^133–599 (domain or fragment, UniProt P07199 133-599, Halo Tag TMR ligand on the Halo tag) VSCSGVARARARNAAPRTPAAPASPAAVPSEGSGGSTTGWRAREEQPPSVAEGYASQDVFSATETSLWYDFLPDQAAGLCGGDGRPRQATQRLSVLLCANADGSEKLPPLVAGKSAKPRAGQAGLPCDYTANSKGGVTTQALAKYLKALDTRMAAESRRVLLLAGRLAAQSLDTSGLRHVQLAFFPPGTVHPLERGVVQQVKGHYRQAMLLKAMAALEGQDPSGLQLGLTEALHFVAAAWQAVEPSDIAACFREAGFGGGPNATITTSLKSEGEEEEEEEEEEEEEEGEGEEEEEEGEEEEEEGGEGEELGEEEEVEEEGDVDSDEEEEEDEESSSEGLEAEDWAQGVVEAGGSFGAYGAQEEAQCPTLHFLEGGEDSDSDSEEEDDEEEDDEDEDDDDDEEDGDEVPVPSFGEAMAYFAMVKRYLTSFPIDDRVQSHILHLEHDLVHVTRKNHARQAGVRGLGHQS	binds	binds	binds	binds	binds	no binding	binds weakly	binds	binds weakly	binds weakly	binds	no binding	–
ZNF518B^WT recruited by TetR:EYFP:CENP-B^133–599 (Fig. S6B) (protein, UniProt Q9C0D4 1-1074) MKDIGQQLYTTHLNGGHNSLTMSPKQPDANGAPRPNRQEAQTLLYQGSEAEAAMMTIATCAKCKSVHKISLQDLQKGTGKDGMYVCFQCSLGAAPPNFHFVSNNSSATHVGNKTENFSSSVNSKFKVRNFKPGKYYCDKCRFSTKDPLQYKKHTLQHEEIKFICSHCSYISYTKGEFQRHLVKHTGIFPYQCEYCDYGAIRNDYIVKHTKRVHERAGAKRPVKAVAKLEPKRTGTSKQNPELLKASNPRTTFQNKWSDQLSGFSLHANKDKMHNIMLLPEPKEYQKDVVCIPNKMTLSEPNEVNLFENKNVEVEVLSPAKEPVQPGMPLTVVAPAELVVPANCLAQLIDVKVVNGTQQLVLKLFPLEENNCLEAGRDNGGNSERMVKEKGSNEQEKVLSAEKTKSLTVDGNVGKLVGIDSFQPSVQKQLKNVKWVRSYDFIMPNSSVHNNGKSFINSETIEDFQKKNNLYPHRTAFPSVALKGHSLASVFKNSVLRSLGAASNPFPYKAAVCFAESGRNLHSSSQQLLPFAASPATCSFSGEKGLLPVSENDLESTSKVNIPVKVVSSNRKQEDNQTEEHKAVSTVGQISSQHKSEYLHINITGEDRSQQPGDKPLELKNSERTNNTNDGPVISSVFSLSSGSENVPEGIKWNSSTSKIKSIELLRRKIAQLIESCGKPSSLASNSAHRRSVGQASKGTSKATSEGIQEINVSLTGLGHSTGTLQKPPNDGGITGNRQLTHQQIYPHFADGSNRKTKSRVARKAHVATPVLIPKGAVLRVLNSSENAHIIEATCEAPVSIPCSERQLIKPVPFCPVRQADSDLQPLRSERGPIDMSPNIETPLRPKLRKESAVCSTIHRKTGLLYGQQGSSELNKQGRLLSRSLSISRNKTKQVHLSRKKNKIQAEPSRCLKDPSIFQVARQLRLIAAKPDQLIKCPRRNQPVIVLNHPDVDSPEVTNVMKVINKYKGNVLKVVLSERTRCQLGIRRHHVRLTYQNAEEASQIKRQMMLKMKLKKVHKNNYQVVDSLPDDSSQCVFKCWFCGRLYEDQEEWMSHGQRHLIEATRDWDVLSSKGK	–	–	–	–	–	–	–	–	–	–	–	–	binds
